Screen size: about 53,000 sequences; about 3,700 (7%) were called active.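 The calls were made as follows: active = gene knockdowns whose robust z-score for IL-1 alpha signal is at least 2 or at most -2, so actives lie on both sides; inactive = the rest.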 The list shows a part of the results.
Assay: Components of the Cytosolic LPS Sensing Pathway: Gene Identification via Genome-wide siRNA Screen;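 also: robust z of the log signal after scaling to non-targeting control siRNA wells of the plate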
Conditions: RAW264.7 macrophages, IL-1a HTRF, actives lie on both sides, screened at 100 nM (by protocol), cells primed 5 h with Pam3CSK4 first
Procedure, shortened: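 Read-out: IL-1a HTRF on supernatant, divided by plate negative-control median ×100, log-transformed and converted to robust z-score. Cells were RAW264.7 given 100 nM siRNA, Pam3CSK4-primed 5 hours, then LipidA-transfected 24 hour.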

Sequence	z-score
GGUAUUGGACAAUCAGAUATT against Cit	inactive: 0.674
CGAUCUACAUCUGCAUCAUTT against Olfr1212	inactive: -1.2
GCUCGAGAACAGUACCAUUTT against Hlcs	inactive: 0.182
GGCCUUUCUAUAUAGAGCCTT against Slc38a9	inactive: -0.321
GGUUGUGGAAGAAGGACUCTT against Med13l	inactive: 0.911
GGUCUUCAACGAAACCAACTT against Ly6g6c	inactive: 0.287
GGAGUUCUGUGAAAUCUUCTT against Camkv	inactive: 0.554
GGGCCAAGAGCUUCUUUGATT against Ahr	inactive: -1.46
CCUCUCUACAUCCACUACUTT against Pogz	active: 3
GAGAAACAACAAUUUGGGATT against Gm20815	active: 2.07
GGGUCUUUAUAAGUCUAUGTT against Kbtbd2	inactive: 1.16
CCAUGGUCUAGCACAGUGGTT against Cpn2	inactive: -0.079
GCAUCCAAUAGGAUUCAUGTT against A930012O16Rik	inactive: 0.286
GCUUCUUGAUCCAACUGGATT against Zfyve27	inactive: 0.362
GGUCAUGACAUCAUUGGCGTT against Kcng4	inactive: -0.142
CGCAGGACGAUUAUGACGUTT against Pcdhb12	inactive: 0.753
GGAUAUGAACCCUACUCUUTT against Tmem255a	inactive: -1.77
GGAACUGAAGGGCAAUAUCTT against Kifc5b	inactive: 1.99
GGAAGAAGUACUCCAACUCTT against Eps8l2	inactive: 1.7
GCUGAAAUCGAAAACCCGCTT against Atp6v0a1	inactive: 0.766
GGAGAUCAGCAGUUCAUUUTT against Csprs	inactive: -1.66
GGAAUGGGAUAGAUUUGUUTT against Ung	active: 2.51

Looked up one by one from the list above, 2 records:
Sequence	z-score
CCUCUCUACAUCCACUACUTT against Pogz	active: 3
GGUCAUGACAUCAUUGGCGTT against Kcng4	inactive: -0.142

(list continues)

Sequence	z-score
GGAAUCAGCAAUGGACCCUTT against Parn	inactive: -0.818
GCAGCUGAGAAAGUCGUUCTT against Ppp1r35	inactive: -1.22
CCGCCUCUUUGAAGCCCAATT against Pdrg1	inactive: -0.271
GGAAGAACGACAAGAACAUTT against Tgfbr2	inactive: 1.02
GGAGAGCAUCAUAUUUGGCTT against Gnb5	inactive: 0.57
GGAAUCAGUGACCUUUUUCTT against Arf2	active: -2.05
GGAGACAACAGAUUUCCUGTT against Bcl2l12	inactive: -0.956
GGCUCUGGAUAAUUACUAUTT against Eif1a	inactive: 0.284
GGUUUACCUCUAUGCUAUGTT against Upk3a	inactive: 1.39
GCAAUGGUGAGCAUUAAAATT against Ifit1bl2	inactive: -1.74
CCUAAAACCUUCAAGUCUUTT against Ppme1	inactive: -0.344
GCAAUUUCGGGUACUCAUATT against Gfus	inactive: -0.845
UCGUGUGCCUGAUGAUCACTT against Abcc5	inactive: -0.889
GGUUUGGCAAAGAAACACATT against Itpa	inactive: 1.5
CCCAAUUUGAUUAUAGGUUTT against Olfr1243	inactive: -0.0212
GCCCUUGAUUGACAAGGAATT against Mrps7	inactive: 0.148
CGAACAUUUCAUCUGAUGATT against Ntrk2	inactive: -1.42
GGACCCAUUCUGUGGGUAATT against Ikzf2	inactive: -0.896
GCAACACACCAUAUCAGGATT against Tas2r135	inactive: -0.322
GGUAUUUUUGCAUUUGUCCTT against Pip4p2	inactive: 1.32
CGAGUGAAAGACCAUAUAATT against Zfp866	inactive: -1.56
GCAUUAUGGGCUUUUAUGATT against Dnaja1	inactive: 0.384

Sequence	z-score
GGUGUAGAAUAGGACAAAUTT against Ntsr2	inactive: 0.43
GGGCACAAGGUCAUAACUGTT against Piga	inactive: -0.0465
GUCAUCGCUCCCAAGAAGGTT against D8Ertd738e	inactive: 0.477
GGUUGCUAAUAGGGAAGAUTT against Uimc1	inactive: -0.194
GGAUGCAUUUCUGAGCCACTT against Tacc2	inactive: -1.62
GCCGUGGAGGCUAAAAUCCTT against Sepsecs	inactive: 0.185
GGUAGAGGUGGAAUGUAGCTT against Qprt	inactive: 1.36
GGAUUCCUAAAUUCUGUGATT against Haus3	inactive: 1.26
GCAGAUUUGCACUGAAUCATT against Ndrg3	inactive: 0.131
GGCCACCAAGAAAUUCAAATT against Cd22	active: 4.16
GGAACAAUACAUCGACACUTT against Grin2c	inactive: 0.183
CGAAUGCUGUACUUCAAAATT against Fsip1	inactive: 1.49
GGAGUUUGCAAAAAAUUCUTT against Olfr294	inactive: -0.434
CCAAGCUUAGCAAGGAGUATT against Cyp2f2	inactive: -1.92
GAAAGCGGAGAUACUGGAGTT against Hes7	inactive: -0.723
CGUCUAACCACCAUUCGGUTT against Orai2	inactive: -0.642
GGCACUCCUAAUCCUUUCCTT against 9430077A04Rik	inactive: 0.0426
CGACUUUUCUCAUUAUGAGTT against Ythdf1	active: -2.58
GCUGCGAUAUUUAAUUCAGTT against Slc10a7	inactive: 1.47
GGUGAUUGGCUGGAUCUACTT against Ctns	inactive: 0.661
GGAGUCUGCUCUCAUUCUUTT against Slc30a1	inactive: -0.214
AUGCACCAUGCCAUUGACCTT against Oxct2a	inactive: 0.736

Nothing new here: an excerpt of the list.
Sequence	z-score
GGUUGCUAAUAGGGAAGAUTT against Uimc1	inactive: -0.194
GGAUGCAUUUCUGAGCCACTT against Tacc2	inactive: -1.62
GCCGUGGAGGCUAAAAUCCTT against Sepsecs	inactive: 0.185
GGUAGAGGUGGAAUGUAGCTT against Qprt	inactive: 1.36

Following part:

Sequence	z-score
GGCUGACACACUUCUACAUTT against D630003M21Rik	inactive: 0.44
GGCCACAAACAGAAUUAUCTT against Mrpl2	inactive: -0.219
GGAUGACCUACGAGUGUUATT against Taf5	inactive: 0.552
GGCUGAUGUAAUCUCUAAATT against Slc9a8	inactive: 1.26
GGUCAAUGUAGCUCCCAUGTT against Opa3	inactive: -0.56
GCUUGAUCCGAUUAGCAGATT against Mcm9	inactive: 1.19
GCGUGUGCGUGAUAAGUAUTT against Cep131	inactive: 0.862
GGACCUGUUGAUAUUGGCCTT against Atp5j	inactive: 0.499
GGUCCUAAAUGCUCAGAAGTT against Rnf167	inactive: 0.41
GGCCUCUUCCUGCUUCUUATT against Tmem218	inactive: -0.125
UUAGCCGAAAGGGCUUAACTT against Olfr1032	inactive: 1.57
GAAUGUAUGGUGAUCAAAGTT against Pip	inactive: 0.205
GCUUGUGUUUUAGAGCCGCTT against Mat1a	inactive: 0.653
GGGUUAUACCCAGAAUUUCTT against Fcrla	inactive: 0.442
GGCCUUUCUUUUGUAAUUUTT against Zfp57	inactive: -0.155
CCCUACGAAGUACCAACUUTT against Il18bp	inactive: -1.72
GGAAAAUUAAUAGCACAAGTT against Acot13	inactive: 0.0633
CCAAGGUAAAUUACUAUGATT against Ninl	inactive: -0.572
GAAUCGGAGCAGUGUGUCATT against Tff2	inactive: -0.556
GGAGGUACCACAAAAGGCATT against Kif2c	inactive: 0.0217
GGAGCUAAACCAAUGGCAATT against Txndc15	inactive: 0.479
GGAUUCGGAAAUAUUGCCATT against Fgb	inactive: -0.672

Sequence	z-score
GGUGAAACUGAGAAUCAUGTT against Mcpt4	inactive: -0.251
CGAGGUAAACAGUUUCGUUTT against BC051142	inactive: -0.0606
GCUCUGUCUUCAGGUCAUUTT against Olfr1040	inactive: -0.0484
GCAGCAGACAAUUAUGAAUTT against Lypd6	inactive: 0.0158
GGGCUGACUACCUUGUCAUTT against Mad2l2	inactive: -0.216
GCUGUCGAGUAGAUGUCUUTT against Thoc6	inactive: -0.435
GGUCAUCUCAGUACUACAATT against Dgat2	inactive: 0.251
CCAAAGAGCGCAUGGCUCATT against Epn2	inactive: -0.782
GGUUCUUAUCACUUGCUGUTT against Arf6	inactive: 0.838
GCUGAGGCAAUUUCAACUUTT against Ctla4	inactive: 0.169
GGUAGUGACGAAAAAUAACTT against Pigt	inactive: -0.677
GGAGGACUUUGGAUUUAAGTT against Prim1	inactive: 1.13
CCUCCAGUACCAACAUUAGTT against Olfr299	inactive: -0.569
GGAUCAAGCAGAAAGGAGATT against Otc	inactive: -0.84
GGAUUCUCUAAUAAAGCGUTT against Pof1b	inactive: 0.684
GGCAAGAAACAGGAGAAGATT against Ptn	inactive: -0.14
GGUUUUAGAAGGGAAACAUTT against Ppp2r2c	inactive: -0.763
GGACAACCAAAAUGCAUUUTT against Zic3	inactive: 0.517
GGAAACAGCAUCAUCAUGUTT against Snrpg	active: -2.28
